Key:
[1] = log D7.4 by shake-flask method, n-octanol/buffered aqueous solution; type: physicochemical; settings: n-octanol/0.02 M HEPES pH 7.4, T = 298.0 K
Procedure: (§1) ^1H NMR spectra were recorded on a Bruker Avance III instrument (Ultrashiled Magnet) at 500.13 MHz at room temperature. DMSO-d6 was used as a solvent. Standard pulse programs were applied. ^1H chemical shifts were measured relative to the residual solvent peaks. The hydrolytic stability of complex 8 in 20 mM phosphate buffer at pH 7.4 (0.1 M (KCl) ionic strength) and in pure water, both containing 10% D2O, was followed by recording ^1H NMR spectra over 24 h. Complex concentration was 1.0 mM. Watergate water suppression program and 4,4-dimethyl-4-silapentane-1-sulfonic acid (DSS) internal standard were used. ATR-IR spectra were measured on a Bruker Vertex spectrometer. D7.4 values were determined by the traditional shake-flask method in n-octanol/buffered aqueous solution at pH 7.4 (N-(2-hydroxyethyl)piperazine-N′-ethanesulfonic acid (HEPES) buffer) and 298.0 ± 0.2 K, as described previously.[25] In the case of the complexes of L-Ala (2) and L-Val (3) the D7.4 values were determined in the presence of 0.1 M KCl as well. Two parallel experiments were performed for each sample. […] Circular dichroism (CD) and UV–vis spectra under physiological conditions (0.02 M phosphate buffer, pH 7.40 with 0.1 M KCl) were recorded on a Jasco J-815 spectrometer in an optical cell of 2 cm path length (l) in the wavelength range from 220 to 600 nm. […]

[2] = Hydrolytic stability by 1H NMR spectroscopy; type: physicochemical; settings: aqueous medium 0.1 M KCl, buffered at pH 7.4, over 24 h, 1.0 mM
Procedure: as §1

## CCCC[N+](CCCC)(CCCC)CCCC.O=[N][Ru-2]1([Cl])([Cl])([Cl])[NH2+][C@@H](Cc2ccc(O)cc2)C(=O)[O]1 [complex 8, (nBu4N)[RuCl3(L-Tyr–H)(NO)]]
[1]
  log D7.4: –1.16 ± 0.02
[2]
  hydrolytic stability: chemical shifts and shapes of all 1H NMR peaks: remained unchanged

Reference: paper PMC3942006, “Ruthenium-Nitrosyl Complexes with Glycine, L-Alanine, L-Valine, L-Proline, D-Proline, L-Serine, L-Threonine, and L-Tyrosine: Synthesis, X-ray Diffraction Structures, Spectroscopic and Electrochemical Properties, and Antiproliferative Activity” (Inorganic Chemistry, 2014)
